In publication PMC7909379 one finds binding data, which are given here for one molecule.

By UniProt entry, the sequences of proteins in these tests, tags left out.
UniProt Q6Y1S1: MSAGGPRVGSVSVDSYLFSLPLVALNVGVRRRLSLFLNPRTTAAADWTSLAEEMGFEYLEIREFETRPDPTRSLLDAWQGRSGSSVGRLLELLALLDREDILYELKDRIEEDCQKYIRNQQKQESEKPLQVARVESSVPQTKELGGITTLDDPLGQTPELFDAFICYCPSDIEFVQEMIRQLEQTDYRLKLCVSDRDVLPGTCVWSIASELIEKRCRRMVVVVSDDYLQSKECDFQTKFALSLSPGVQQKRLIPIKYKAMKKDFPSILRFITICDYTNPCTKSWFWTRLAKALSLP

No constants are given. Whether binding was seen depends on the method and setting. In cells and extracts the contact can be indirect. Some results given as binding are weak or reduced against the parent protein; the word gives no strength.

The experiment deals with myeloid differentiation primary response 88 (MyD88) (rat (endogenous in P rat nucleus accumbens)) (UniProt Q6Y1S1). Nature of the experiment: co-IP; protein extracts from the NAc of male and female P rats given 3α,5α-THP (15 mg/kg, IP, 30 min) or vehicle; immunoprecipitated with antibody to MyD88 or TRIF, immunoblotted for TLR4 or TLR7 (TLR7 in females only); normal IgG as immunoprecipitation control.

B1: toll-like receptor 4 (TLR4) (receptor, UniProt Q9QX05 26-835)
chain: NPCIEVLPNITYQCMDQNLSKIPHDIPYSTKNLDLSFNPLKILRSYSFTNFSQLQWLDLSRCEIETIEDKAWHGLNQLSTLVLTGNPIKSFSPGSFSGLTNLENLVAVETKMTSLEGFHIGQLISLKKLNVAHNLIHSFKLPEYFSNLTNLEHVDLSYNYIQTISVKDLQFLRENPQVNLSLDLSLNPIDSIQAQAFQGIRLHELTLRSNFNSSNVLKMCLQNMTGLHVHRLILGEFKNERNLESFDRSVMEGLCNVSIDEFRLTYINHFSDDIYNLNCLANISAMSFTGVHIKHIADVPRHFKWQSLSIIRCHLKPFPKLSLPFLKSWTLTTNREDISFGQLALPSLRYLDLSRNAMSFRGCCSYSDFGTNNLKYLDLSFNGVILMSANFMGLEELEYLDFQHSTLKKVTEFSVFLSLEKLLYLDISYTNTKIDFDGIFLGLISLNTLKMAGNSFKDNTLSNVFTNTTNLTFLDLSKCQLEQISRGVFDTLYRLQLLNMSHNNLLFLDPSHYKQLYSLRTLDCSFNRIETSKGILQHFPKSLAVFNLTNNSVACICEYQNFLQWVKDQKMFLVNVEQMKCASPIDMKASLVLDFTNSTCYIYKTIISVSVVSVLVVATVAFLIYHFYFHLILIAGCKKYSRGESIYDAFVIYSSQNEDWVRNELVKNLEEGVPRFQLCLHYRDFIPGVAIAANIIQEGFHKSRKVIVVVSRHFIQSRWCIFEYEIAQTWQFLSSRSGIIFIVLEKVEKSLLRQQVELYRLLSRNTYLEWEDNALGRHIFWRRLKKALLDGKALNPDETSEEEQEATTLT
On to B1, for which the binding result is listed as “binds”.
